Laboratory results: article doi:10.1101/2023.01.03.522657
Numbering of substitutions follows the chain as printed. Results are given in words; binding and its absence hold for the method and conditions named. Binding seen in cells or lysates may run through a third protein. Binding can be weak; no strength is given. Tags and fused reporters may be left off the sequences shown.

Assays:
[1] = biological target: T1, V5-tagged DHR1L (Dock7 DHR1 domain with a C-terminal 183 amino acid addition of the downstream linker region) (human (cDNA from HeLa cells)) (UniProt Q96N67); test: co-IP; HEK-293T lysates (50 mM Hepes pH 8.0, 150 mM NaCl, 0.3% CHAPS); anti-Myc, HA, Flag or V5 antibody 2 h, then BSA-coated Protein G beads 1 h at 4°C; Western blot
T1 sequence: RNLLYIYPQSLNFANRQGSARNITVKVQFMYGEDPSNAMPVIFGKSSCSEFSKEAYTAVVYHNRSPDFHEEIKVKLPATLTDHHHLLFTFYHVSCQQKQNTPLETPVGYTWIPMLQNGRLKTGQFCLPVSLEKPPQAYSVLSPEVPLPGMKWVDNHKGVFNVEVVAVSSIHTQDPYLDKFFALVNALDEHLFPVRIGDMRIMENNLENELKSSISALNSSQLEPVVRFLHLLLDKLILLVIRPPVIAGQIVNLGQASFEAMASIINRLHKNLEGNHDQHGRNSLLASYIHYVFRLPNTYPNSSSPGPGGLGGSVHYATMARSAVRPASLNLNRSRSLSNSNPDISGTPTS

[2] = biological target: T2, V5-tagged DHR2 limit domain of Dock7 (human (cDNA from HeLa cells)) (UniProt Q96N67); test: as above
T2 sequence: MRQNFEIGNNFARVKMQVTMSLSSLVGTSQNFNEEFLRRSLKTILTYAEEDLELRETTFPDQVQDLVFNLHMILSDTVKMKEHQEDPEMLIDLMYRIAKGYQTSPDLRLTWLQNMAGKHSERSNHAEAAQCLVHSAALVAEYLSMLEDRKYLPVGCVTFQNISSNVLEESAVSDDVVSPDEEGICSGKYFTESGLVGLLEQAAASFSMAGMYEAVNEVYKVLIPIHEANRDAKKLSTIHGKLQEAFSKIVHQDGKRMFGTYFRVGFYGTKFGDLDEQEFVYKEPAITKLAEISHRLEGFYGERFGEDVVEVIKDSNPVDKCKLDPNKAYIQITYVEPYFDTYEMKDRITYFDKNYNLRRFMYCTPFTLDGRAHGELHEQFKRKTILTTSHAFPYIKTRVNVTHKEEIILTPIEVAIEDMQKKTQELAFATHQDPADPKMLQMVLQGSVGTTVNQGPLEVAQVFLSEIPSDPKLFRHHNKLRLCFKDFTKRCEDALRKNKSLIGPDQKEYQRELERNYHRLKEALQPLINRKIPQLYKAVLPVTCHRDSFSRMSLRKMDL

[3] = biological target: T2, V5-tagged DHR2 limit domain of Dock7 (human (cDNA from HeLa cells)); test: proximity ligation; Duolink PLA between the V5 tag of an overexpressed Dock7 construct and an endogenous partner in fixed, serum-starved MDA-MB-231 cells (limit domains: after Dock7 knockdown)
[4] = biological target: T3, V5-tagged DHR1L C2 mutant (human (cDNA from HeLa cells)) (UniProt Q96N67); test: as above
T3 sequence: T1 sequence with R16A, R21A

Row | Substance | binding [1] | binding [2] | binding [3] | binding [4]
1 | Flag-tagged AKT | binds | binds |  | 
2 | endogenous AKT |  |  | binds | binds
